# Reference: US10159726B2, “Peptides, combination of peptides and scaffolds for use in immunotherapeutic treatment of various cancers” (Immatics Biotechnologies GmbH, priority 2015, dated 2018)
# For some of these results: Expression values are those of the mRNA of the gene that encodes the peptide; a gene is named only where it was looked up.
# Experiments:
# Parameters in all cases: species or system human
# [1] = system: HLA-A*02 molecules of primary tumors; experiment: Identification and relative LC-MS quantitation of HLA-A*02 tumor-associated peptides presented on tissue samples (XPRESIDENT presentation profiles)
# [2] = system: source genes of selected peptides; experiment: Expression profiling of source genes by in-house RNAseq, tumor vs normal tissues (target coverage); conditions: in-house RNASeq; for Target coverage, over-expression of source gene, AML: AML (N = 7), over-expression = more than 1.5-fold higher expression on tumor vs highest-expressing relevant normal tissue; for Target coverage, over-expression of source gene, BRCA: BRCA (N = 10); for Target coverage, over-expression of source gene, BRCA / Target coverage, over-expression of source gene, CLL / Target coverage, over-expression of source gene, CRC / Target coverage, over-expression of source gene, GB / Target coverage, over-expression of source gene, HCC / Target coverage, over-expression of source gene, OC / Target coverage, over-expression of source gene, OSCAR / Target coverage, over-expression of source gene, PC / Target coverage, over-expression of source gene, RCC / Target coverage, over-expression of source gene, SCLC / Target coverage, over-expression of source gene, pNSCLC: over-expression = more than 1.5-fold vs highest normal tissue; for Target coverage, over-expression of source gene, CLL: CLL (N = 10); for Target coverage, over-expression of source gene, CRC: CRC (N = 20); for Target coverage, over-expression of source gene, GB: GB (N = 24); for Target coverage, over-expression of source gene, HCC: HCC (N = 15); for Target coverage, over-expression of source gene, OC: OC (N = 12); for Target coverage, over-expression of source gene, OSCAR: OSCAR (N = 11); for Target coverage, over-expression of source gene, PC: PC (N = 26); for Target coverage, over-expression of source gene, RCC: RCC (N = 10); for Target coverage, over-expression of source gene, SCLC: SCLC (N = 10); for Target coverage, over-expression of source gene, pNSCLC: pNSCLC (N = 11)
# [3] = system: source genes of selected peptides; experiment: Target coverage of source genes in tumor entities based on TCGA Research Network data; conditions: over-expressed = more than 2-fold above the highest 75% percentile of normal organs; for Target coverage, over-expression category of source gene, KICH (N = 66): Kidney chromophobe; for Target coverage, over-expression category of source gene, KIRP (N = 291): Kidney renal papillary cell carcinoma; for Target coverage, over-expression category of source gene, MESO (N = 87): Mesothelioma; for Target coverage, over-expression category of source gene, SKCM (N = 473): Skin cutaneous melanoma; for Target coverage, over-expression category of source gene, STAD (N = 415): Stomach adenocarcinoma; for Target coverage, over-expression category of source gene, THCA (N = 513): Thyroid carcinoma; for Target coverage, over-expression category of source gene, UVM (N = 80): Uveal melanoma; for Target coverage, over-expression category of source gene, BLCA (N = 408): Bladder urothelial carcinoma; for Target coverage, over-expression category of source gene, CESC (N = 307): Cervical squamous cell carcinoma and endocervical adenocarcinoma; for Target coverage, over-expression category of source gene, HNSC (N = 521): Head and neck squamous cell carcinoma; for Target coverage, over-expression category of source gene, DLBC (N = 48): Lymphoid neoplasm diffuse large B-cell lymphoma
# [4] = Table 8A: selected HLA-A*02-binding tumor-associated peptides, cancer entities on which the peptide was found presented
# [5] = Table 8B: selected HLA-A*02 peptides, presentation on additional cancer entities
Substance,"Peptide Presentation on cancer entities [1, 4]","Peptide Presentation on cancer entities [1, 5]","Target coverage, over-expression of source gene, AML [2]","Target coverage, over-expression of source gene, BRCA [2]","Target coverage, over-expression of source gene, CLL [2]","Target coverage, over-expression of source gene, CRC [2]","Target coverage, over-expression of source gene, GB [2]","Target coverage, over-expression of source gene, HCC [2]","Target coverage, over-expression of source gene, OC [2]","Target coverage, over-expression of source gene, OSCAR [2]","Target coverage, over-expression of source gene, PC [2]","Target coverage, over-expression of source gene, RCC [2]","Target coverage, over-expression of source gene, SCLC [2]","Target coverage, over-expression of source gene, pNSCLC [2]","Target coverage, over-expression category of source gene, KICH (N = 66) [3]","Target coverage, over-expression category of source gene, KIRP (N = 291) [3]","Target coverage, over-expression category of source gene, MESO (N = 87) [3]","Target coverage, over-expression category of source gene, SKCM (N = 473) [3]","Target coverage, over-expression category of source gene, STAD (N = 415) [3]","Target coverage, over-expression category of source gene, UVM (N = 80) [3]",also measured
17: peptide found in MET (gene looked up) (ILHEHHIFL; listed as Homo sapiens) [compound 17],"RCC, NSCLC",UTC,I (<19% over-expression = I),I (<19% over-expression = I),I (<19% over-expression = I),II (20-49% = II),I (<19% over-expression = I),II (20-49% = II),II (20-49% = II),I (<19% over-expression = I),II (20-49% = II),IV (>70% = IV),I (<19% over-expression = I),II (20-49% = II),"B (>=20% of tumors above the cutoff, but <50%)",A (>=50% of tumors above the cutoff),"C (>=5% of tumors above the cutoff, but <20%)","C (>=5% of tumors above the cutoff, but <20%)","C (>=5% of tumors above the cutoff, but <20%)","B (>=20% of tumors above the cutoff, but <50%)","Target coverage, over-expression category of source gene, THCA (N = 513) [3]: A (>=50% of tumors above the cutoff)"
18: peptide found in MET (gene looked up) (YVLNEEDLQKV; listed as Homo sapiens) [compound 18],–,"UTC, NSCLC",I (<19% over-expression = I),I (<19% over-expression = I),I (<19% over-expression = I),II (20-49% = II),I (<19% over-expression = I),II (20-49% = II),II (20-49% = II),I (<19% over-expression = I),II (20-49% = II),IV (>70% = IV),I (<19% over-expression = I),II (20-49% = II),"B (>=20% of tumors above the cutoff, but <50%)",A (>=50% of tumors above the cutoff),"C (>=5% of tumors above the cutoff, but <20%)","C (>=5% of tumors above the cutoff, but <20%)","C (>=5% of tumors above the cutoff, but <20%)","B (>=20% of tumors above the cutoff, but <50%)","Target coverage, over-expression category of source gene, THCA (N = 513) [3]: A (>=50% of tumors above the cutoff)"
31: peptide found in PRKDC (gene looked up) (ALSDETKNNWEV; listed as Homo sapiens) [compound 31],"AML, CLL",–,I (<19% over-expression = I),III (50-69% = III),I (<19% over-expression = I),II (20-49% = II),III (50-69% = III),I (<19% over-expression = I),III (50-69% = III),II (20-49% = II),I (<19% over-expression = I),I (<19% over-expression = I),IV (>70% = IV),III (50-69% = III),–,–,–,"C (>=5% of tumors above the cutoff, but <20%)","B (>=20% of tumors above the cutoff, but <50%)","C (>=5% of tumors above the cutoff, but <20%)","Target coverage, over-expression category of source gene, BLCA (N = 408) [3]: C (>=5% of tumors above the cutoff, but <20%); Target coverage, over-expression category of source gene, CESC (N = 307) [3]: C (>=5% of tumors above the cutoff, but <20%); Target coverage, over-expression category of source gene, HNSC (N = 521) [3]: B (>=20% of tumors above the cutoff, but <50%); Target coverage, over-expression category of source gene, SARC (N = 263) ([3]; Sarcoma): C (>=5% of tumors above the cutoff, but <20%); Target coverage, over-expression category of source gene, TGCT (N = 156) ([3]; Testicular germ cell tumors): B (>=20% of tumors above the cutoff, but <50%); Target coverage, over-expression category of source gene, UCS (N = 57) ([3]; Uterine carcinosarcoma): B (>=20% of tumors above the cutoff, but <50%)"
321: peptide found in NME2 (gene looked up) (SLWFKPEEL; listed as Homo sapiens) [compound 321],"GC, BRCA, CLL, PC, GB, UBC, PCA, CRC, SCLC, HCC, MEL, OC, NSCLC, GBC_CCC, OSCAR, clPC, NHL","UTC, HNSCC, AML",–,–,–,–,–,–,–,–,–,–,–,–,–,"C (>=5% of tumors above the cutoff, but <20%)","B (>=20% of tumors above the cutoff, but <50%)",–,–,–,"Target coverage, over-expression category of source gene, ACC (N = 79) ([3]; Adrenocortical carcinoma): B (>=20% of tumors above the cutoff, but <50%); Target coverage, over-expression category of source gene, BLCA (N = 408) [3]: B (>=20% of tumors above the cutoff, but <50%); Target coverage, over-expression category of source gene, CESC (N = 307) [3]: C (>=5% of tumors above the cutoff, but <20%); Target coverage, over-expression category of source gene, CHOL (N = 36) ([3]; Cholangiocarcinoma): C (>=5% of tumors above the cutoff, but <20%); Target coverage, over-expression category of source gene, HNSC (N = 521) [3]: B (>=20% of tumors above the cutoff, but <50%); Target coverage, over-expression category of source gene, LGG (N = 534) ([3]; Lower grade glioma): A (>=50% of tumors above the cutoff); Target coverage, over-expression category of source gene, DLBC (N = 48) [3]: B (>=20% of tumors above the cutoff, but <50%); Target coverage, over-expression category of source gene, PCPG (N = 184) ([3]; Pheochromocytoma and paraganglioma): B (>=20% of tumors above the cutoff, but <50%)"
340: peptide found in MOB1A (gene looked up) (SVAKTILKR; listed as Homo sapiens) [compound 340],"NSCLC, OSCAR",NHL,–,–,–,–,–,–,–,–,–,–,–,–,"B (>=20% of tumors above the cutoff, but <50%)",–,–,–,–,–,"Target coverage, over-expression category of source gene, DLBC (N = 48) [3]: B (>=20% of tumors above the cutoff, but <50%)"
